According to patent US7553837B2, “Phenylazole compounds production process and antioxidants” (Nippon Soda Co., Ltd., priority 2003, dated 2009):
At least one structure is not confirmed: it was looked up by name or label, or the drawing left a doubt.

Test system: lipid peroxidation activity in a rat brain homogenate
Assay: In vitro lipid peroxidation inhibition (rat brain homogenate, thiobarbituric acid process)
Format: biochemical
Conditions: read-out: In vitro lipid peroxidation inhibition 50% inhibitory concentration (IC50 μM), 500 μM cysteine, 5 μM sulfuric acid monobasic iron, 100 mM KCl, 37° C. for 30 minutes
Procedure: An in vitro lipid peroxidation inhibition of the compounds of the present invention was evaluated by measuring a lipid peroxidation activity in a rat brain homogenate according to a process of Malvy, c., et al., Biochemical and Biophysical Research Communications, 1980, Vol. 95, p. 734-737. That is, a rat brain was extracted and a 5-fold amount of an aqueous phosphoric acid buffered saline solution (pH 7.4) (hereinafter abbreviated to PBS) was added to the brain under ice cooling, followed by homogenization using a Teflon homogenizer and further centrifugation at 10,000 g for 20 minutes to prepare a brain homogenate as a supernatant. To the brain homogenate thus prepared, 500 μM cysteine, 5 μM sulfuric acid monobasic iron and 100 mM KCl were added, followed by incubation at 37° C. for 30 minutes. Malondialdehyde produced by the […] of lipid peroxidation was measured by a thiobarbituric acid process.

Row | SMILES | IC50
1 | Cc1c(C)c2c(c(C)c1N)CC(C)(C(=O)N1CCN(c3ccc(-n4ccnc4)cc3)CC1)O2 (racemic) [Compound B-1-1, (±)-(5-amino-2,4,6,7-tetramethyldihydrobenzofuran-2-yl)-[4-(4-imidazol-1-ylphenyl)-piperazin-1-yl]carboxamide] | 0.4 µM
2 | Cc1c(C)c2c(c(C)c1N)CC(C)(CN1CCN(c3ccc(-n4ccnc4)cc3)CC1)O2 (racemic) [Compound B-1-2, 4-(±)-(5-amino-2,4,6,7-tetramethyldihydrobenzofuran-2-ylmethyl)-1-(4-imidazol-1-ylphenyl)piperazine] | 0.31 µM
